Library screen at single concentrations

Protein sequences, listed by entry. Tags and fused reporters are not part of them. Residues count along the entry.
UniProt I6X8D2, whole entry: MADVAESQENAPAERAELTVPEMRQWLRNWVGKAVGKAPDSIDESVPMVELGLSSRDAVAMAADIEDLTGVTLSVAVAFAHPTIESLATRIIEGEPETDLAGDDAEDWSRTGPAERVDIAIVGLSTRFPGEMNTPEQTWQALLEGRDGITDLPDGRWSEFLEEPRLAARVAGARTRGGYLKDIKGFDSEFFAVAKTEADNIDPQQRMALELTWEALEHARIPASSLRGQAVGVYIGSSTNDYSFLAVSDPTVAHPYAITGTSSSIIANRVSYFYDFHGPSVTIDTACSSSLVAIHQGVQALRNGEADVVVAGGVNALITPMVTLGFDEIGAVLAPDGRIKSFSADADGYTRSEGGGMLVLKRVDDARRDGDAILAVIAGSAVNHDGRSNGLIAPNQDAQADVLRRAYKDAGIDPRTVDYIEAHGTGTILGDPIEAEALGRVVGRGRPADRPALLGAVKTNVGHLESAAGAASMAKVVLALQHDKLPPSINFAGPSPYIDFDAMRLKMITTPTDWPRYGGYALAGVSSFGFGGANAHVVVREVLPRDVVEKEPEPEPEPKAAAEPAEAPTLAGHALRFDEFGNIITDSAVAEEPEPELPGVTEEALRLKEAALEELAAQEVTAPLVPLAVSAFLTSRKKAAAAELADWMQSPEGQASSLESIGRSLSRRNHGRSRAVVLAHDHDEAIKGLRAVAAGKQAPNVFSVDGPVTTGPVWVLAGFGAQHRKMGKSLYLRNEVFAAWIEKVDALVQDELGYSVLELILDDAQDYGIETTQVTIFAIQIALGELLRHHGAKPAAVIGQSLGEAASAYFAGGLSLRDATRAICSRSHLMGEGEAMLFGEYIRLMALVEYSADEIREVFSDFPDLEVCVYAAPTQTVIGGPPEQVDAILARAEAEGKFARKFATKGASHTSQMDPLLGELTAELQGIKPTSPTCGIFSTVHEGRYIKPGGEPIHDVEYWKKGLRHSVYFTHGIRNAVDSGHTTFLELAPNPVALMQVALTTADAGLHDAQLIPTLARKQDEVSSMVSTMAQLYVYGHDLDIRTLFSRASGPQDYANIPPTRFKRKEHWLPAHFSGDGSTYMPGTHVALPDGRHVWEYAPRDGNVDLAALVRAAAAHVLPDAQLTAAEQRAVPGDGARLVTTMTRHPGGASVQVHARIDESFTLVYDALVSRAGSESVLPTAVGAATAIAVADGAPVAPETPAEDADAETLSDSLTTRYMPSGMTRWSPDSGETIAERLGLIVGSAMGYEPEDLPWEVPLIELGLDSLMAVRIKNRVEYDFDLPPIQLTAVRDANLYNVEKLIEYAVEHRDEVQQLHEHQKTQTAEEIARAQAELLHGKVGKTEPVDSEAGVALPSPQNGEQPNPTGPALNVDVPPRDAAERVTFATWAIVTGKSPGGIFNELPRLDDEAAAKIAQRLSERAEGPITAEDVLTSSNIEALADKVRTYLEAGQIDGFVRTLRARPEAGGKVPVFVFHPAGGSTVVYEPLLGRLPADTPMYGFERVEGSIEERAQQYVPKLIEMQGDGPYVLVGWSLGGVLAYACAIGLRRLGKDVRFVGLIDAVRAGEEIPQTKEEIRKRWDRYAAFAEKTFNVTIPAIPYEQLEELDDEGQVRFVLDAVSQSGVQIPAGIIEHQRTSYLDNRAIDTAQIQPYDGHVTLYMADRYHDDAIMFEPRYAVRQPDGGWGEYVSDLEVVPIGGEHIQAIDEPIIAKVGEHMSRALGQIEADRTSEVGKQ
UniProt Q8IDJ8, 1-583: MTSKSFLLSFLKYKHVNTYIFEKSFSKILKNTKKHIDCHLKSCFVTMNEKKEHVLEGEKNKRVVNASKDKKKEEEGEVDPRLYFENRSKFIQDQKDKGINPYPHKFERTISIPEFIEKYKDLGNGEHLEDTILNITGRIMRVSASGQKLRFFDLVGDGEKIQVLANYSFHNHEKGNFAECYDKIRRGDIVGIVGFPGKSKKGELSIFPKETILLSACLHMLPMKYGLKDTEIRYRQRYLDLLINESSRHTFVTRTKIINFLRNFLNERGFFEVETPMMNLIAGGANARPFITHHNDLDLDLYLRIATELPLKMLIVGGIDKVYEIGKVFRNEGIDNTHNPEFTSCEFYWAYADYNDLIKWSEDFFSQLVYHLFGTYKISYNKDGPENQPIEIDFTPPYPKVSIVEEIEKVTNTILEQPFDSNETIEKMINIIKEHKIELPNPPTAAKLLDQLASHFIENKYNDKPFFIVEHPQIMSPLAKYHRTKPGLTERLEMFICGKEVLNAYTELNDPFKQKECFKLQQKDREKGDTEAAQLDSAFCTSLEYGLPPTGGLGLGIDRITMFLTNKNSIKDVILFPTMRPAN
UniProt P9WNZ1, whole entry: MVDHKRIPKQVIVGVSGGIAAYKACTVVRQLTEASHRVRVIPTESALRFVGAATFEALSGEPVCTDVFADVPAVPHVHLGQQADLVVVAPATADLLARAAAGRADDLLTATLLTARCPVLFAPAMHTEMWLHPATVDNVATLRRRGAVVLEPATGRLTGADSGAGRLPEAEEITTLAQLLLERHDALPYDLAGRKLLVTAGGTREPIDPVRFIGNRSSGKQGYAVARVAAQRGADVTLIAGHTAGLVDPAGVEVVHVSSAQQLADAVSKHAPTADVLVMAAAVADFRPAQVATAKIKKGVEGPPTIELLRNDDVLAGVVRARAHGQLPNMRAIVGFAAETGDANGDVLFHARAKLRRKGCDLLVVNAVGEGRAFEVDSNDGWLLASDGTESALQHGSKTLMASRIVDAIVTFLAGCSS

Measurements from “University of Dundee, Small-Polar-MMV Screening Library” (2021), ChEMBL document CHEMBL3988442.

Toxoplasma: 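Assay of Toxoplasma gondii numbers, read through their beta-galactosidase reporter with a colour substrate. Tested at 10 µM. The record gives no direction; the compounds picked for IC50 retests had high values, so higher reads as fewer parasites. About 67,000 compounds were tested under these conditions; 0.38% (about 260) showed 50% or more at least once.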
Pks13 thioesterase: 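Enzyme assay of the thioesterase domain of polyketide synthase 13; the read-out is not stated. Target: Polyketide synthase Pks13, Mycobacterium tuberculosis (UniProt I6X8D2). Concentration: 30 µM. The record gives no direction; the compounds picked for IC50 retests had high values, so higher reads as stronger inhibition. About 67,000 compounds were tested under these conditions; 0.46% (about 300) showed 50% or more at least once.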
PfKRS1: 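Enzyme assay of the cytosolic lysyl-tRNA synthetase in 384-well plates, read by luminescence. Target: Lysine-tRNA ligase, Plasmodium falciparum 3D7 (UniProt Q8IDJ8). Concentration: 30 µM. Direction is inferred from only a few compounds that gave an IC50; most scored high, so higher reads as stronger inhibition. Of about 69,000 compounds tested this way, about 49 (0.071%) reached 50% or more in at least one test.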
CoaBC: 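Enzyme assay of CoaBC with a phosphate dye (Biomol Green) read at 650 nm. Target: Coenzyme A biosynthesis protein CoaBC, Mycobacterium tuberculosis (UniProt P9WNZ1). Compounds at 30 µM. Higher reads as stronger inhibition, judged from the few compounds that gave an IC50. Most strong results did not repeat in a second test. Of about 67,000 compounds tested this way, about 40 (0.06%) reached 50% or more in at least one test.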

Values are the deposited “Percent Effect”, in %.
How 0% and 100% were set is not recorded. Most values in the screen are low, and negative values occur.
Compounds were drawn at random from those tested, without regard to their results.
A dash means the value is not listed here; it may have been measured.

| SMILES | Toxoplasma | Pks13 thioesterase | PfKRS1 | CoaBC |
|---|---|---|---|---|
| `CC(C)NC(=O)CC1CC2(CCN(CC3CC3)CC2)Oc2ccccc21` (stereo not given) | - | -45.25 | -1.38 | -0.6435 |
| `Cc1nn(C)c2c(=O)n(C(C)C)c(NCCc3ccccc3)nc12` | 81.01 | -18.63 | -1.93 | 3.695 |
| `COc1ccc(-c2ccc(C(=O)N3CCOCC3CC(=O)O)o2)cc1` (stereo not given) | 19.29 | 17.68 | 4.476 | 1.316 |
| `Cn1ccnc1CN1CCC2(CC(=O)N(c3ccc4c(c3)OCO4)C2)C1.O=C(O)C(F)(F)F` (stereo not given) | 15.43 | - | - | - |
| `Cc1csc(N2CCCN(C3Cc4ccccc4C3)CC2)n1` | 0.8046 | 4.997 | 0.9359 | 2.985 |
| `COc1ccccc1C(C(=O)O)N1CCCN(C2CCCC2)CC1` (stereo not given) | -0.1732 | 4.207 | -2.337 | -4.234 |
| `Cc1ccc(C(C(=O)O)N2CCCN(Cc3ccccn3)CC2)c(F)c1` (stereo not given) | -5.622 | 4.373 | 13.12 | 1.984 |
| `Cl.Oc1cc(C2CCNCC2)nc(-c2ccsc2)n1` | 6.46 | - | - | - |
| `Cc1cc(=O)[nH]c(=O)n1Cc1ncc(-c2ccccc2C(=O)O)s1` | 0.3521 | 9.944 | 1.044 | -2.331 |
| `Cn1ncc(C2CC(=O)NCc3nc4sccn4c32)c1C1CC1` (stereo not given) | -26.27 | -0.6446 | 1.744 | 5.093 |
| `O=C(NCC(F)(F)F)c1ccncc1` | 5.832 | -1.377 | 3.301 | -16.67 |
| `Cc1ccc(CNC(=O)CN2C=Nc3ccccc3S2(=O)=O)s1` | -8.726 | -10.38 | 0.07181 | 11.85 |
| `CN(C)C(=O)C1OC2(CCN(C(=O)c3ccco3)CC2)c2ccccc21` (stereo not given) | -9.108 | 11.46 | 6.429 | 3.258 |
| `Cc1nc2cc(=O)[nH]n2c(C)c1CC(=O)Nc1cnn(C)c1` | -3.386 | -9.431 | 1.613 | -3.532 |
| `O=C1CC[C@H]2CN(Cc3ccc(Cl)s3)CC[C@H]2N1CCc1c[nH]cn1` | - | -40.28 | 3.121 | -1.505 |
| `O=C(NC1CCCN(c2ncccn2)C1)c1ccoc1` (stereo not given) | 0.3519 | -15.81 | 2.519 | 12.01 |
| `Cc1cn2c(n1)CCC(NC(=O)CCC1CC1)C2` (stereo not given) | -35.12 | 1.515 | 5.352 | 9.917 |
| `CCn1cc(NC(=O)C2CCN(Cc3noc(C4CC4)n3)CC2)cn1` | 14.38 | -1.043 | 0.6061 | 8.075 |
| `O=C(C1CCCC1)N1CCC(C2CCN(Cc3ccc(Cl)cc3)C2)CC1` (stereo not given) | 5.865 | -16.85 | 0.794 | 7.09 |
| `O=C1NCCCCC1NC(=O)N1CCCc2ccccc21` (stereo not given) | -14.86 | 6.612 | 4.611 | 8.968 |
| `CCCS(=O)(=O)CC(=O)N1CCCC1c1noc(C2CC2)n1` (stereo not given) | - | -5.763 | -1.519 | -0.861 |
| `Cc1ccc(C(=O)N2CCO[C@H]3[C@H](OCCN(C)C)CC[C@@H]32)o1` | - | -10.06 | -0.5374 | 7.625 |
| `O=C(CN1CCS(=O)(=O)CC1)NC1CCCOc2ccccc21` (stereo not given) | -50.73 | -19.58 | 1.923 | 1.33 |
| `CC(C)(NC(=O)Nc1cnn(CC2CCCO2)c1)c1nccs1` (stereo not given) | 5.52 | -17.47 | 5.023 | -7.54 |
| `CCCS(=O)(=O)N1Cc2nccn2CC(Cn2cncn2)C1` (stereo not given) | 28.18 | -39.79 | 0.7342 | -1.707 |
| `Cc1ccoc1C(=O)N1C[C@H](OCc2cccnc2)[C@H]2OCCC[C@H]21` | - | -8.514 | 4.443 | 10.08 |
| `Cc1cc(CN2C[C@@H]3COC[C@@H](C(=O)N4CCCCO4)[C@@H]3C2)oc1C` | - | -7.511 | 3.292 | 5.75 |
| `O=C1CC2(CCCNC2)C(=O)N1Cc1cccc(F)c1` (stereo not given) | - | -661 | 3.84 | -0.6435 |
| `COc1ccc(C(=O)CN(C2=NCCCCC2)c2ccccc2)cc1` | - | -11.91 | -1.302 | 6.329 |
| `Cc1noc(C)c1NC(=O)Cn1cc(Br)ccc1=O` | 8.126 | -6.525 | 2.262 | 2.233 |
| `c1ccc(OC[C@]23COC[C@H]2CN(C2CCOCC2)C3)nc1` | - | -30.27 | -1.274 | 1.11 |
| `CNC(=O)c1cccnc1NCCOc1ccccc1` | -6.524 | -12.51 | 3.346 | -3.427 |
| `Cc1nn(C)c(C)c1C1CCCN1C(=O)c1cc(C(N)=O)cs1` (stereo not given) | 8.147 | -33.75 | 4.987 | -0.3822 |
| `O=C(C1CN(c2ncc(F)cn2)CC12CCOCC2)N1CCOCC1` (stereo not given) | -6.892 | 14.75 | -3.84 | 17.08 |
| `O=C(O)C(F)(F)F.[H][C@@]12CN(C(=O)c3ccsc3)C[C@]1([H])OCCN2C(C)C` | -5.706 | - | - | - |
| `CC(C)c1nnc2n1CCN(C(=O)c1ccc(CN(C)C)cc1)C2` | -2.185 | -8.91 | -1.253 | 4.359 |
| `O=C(O)C(=O)O.c1csc(-c2noc(C3CN(Cc4ccc5c(c4)CCO5)C3)n2)c1` | 9.009 | - | - | - |
| `CCSCCC(=O)N1CCc2[nH]nc(COc3ccccc3)c2C1` | 15.71 | -7.453 | 1.009 | 0.2427 |
| `O=C1c2cnc(N3CCOCC3)nc2CN1C1CCS(=O)(=O)C1` (stereo not given) | 9.981 | -4.116 | 1.783 | -1.033 |
| `Cc1nc(S(=O)(=O)N2CCCCc3ccccc32)cn1C` | -13.85 | -14.74 | 5.818 | 12.13 |
| `c1csc(CN2CCO[C@@H]3CN(C4CCOCC4)C[C@@H]3C2)c1` | - | -2.416 | 1.11 | - |
| `CSCCC(O)C(=O)N1CCCN(Cc2ccc(F)cc2)CC1` (stereo not given) | -4.053 | -33.76 | 14.32 | -18.36 |
| `CCCc1nc(CN2CCOC(CNc3cccnn3)C2)cs1` (stereo not given) | 2.929 | -8.525 | 3.709 | 3.915 |
| `COCC1CC2(CCN(CC3CC3)CC2)CN1Cc1csc(C)n1` (stereo not given) | - | -9.157 | 6.19 | -5.417 |
| `CN(C)CC(=O)N1CCCC2(CCN(c3ccccc3)C2=O)C1` (stereo not given) | - | -30.06 | 4.714 | 4.762 |
| `Cc1cccnc1NC(=O)NC(CCO)C(C)(C)C` (stereo not given) | 3.151 | 24.16 | -0.9359 | -4.592 |
| `CCNc1cc2c(nn1)CCN(C(=O)c1c(C)noc1C)C2` | -6.712 | -9.305 | 0.5065 | 2.682 |
| `CN(C)C(=O)[C@@H]1C[C@@H]2CCN(C3CCOCC3)C[C@@H]2O1` | - | -54.62 | -0.5093 | 16.79 |
| `Cc1ccc(-c2cc(CNCCn3cc(C)cn3)on2)cc1` | 0.5461 | 34.28 | 5.307 | 4.263 |
| `CS(=O)(=O)N1CCC2(CC1)CC(Oc1ccccn1)CO2` (stereo not given) | - | -32.53 | 6.581 | 8.061 |
| `CN1C(=O)CC2(CCN(Cc3cnn(C)c3)CC2)c2ccccc21` | -10.46 | -15.88 | 3.563 | 4.44 |
| `CCOc1cc(C(=O)n2cccn2)cc(OCC)c1OCC` | -67.85 | 21.47 | 2.867 | 9.764 |
| `COC(=O)c1ccc(NC(=O)CCc2ccncc2)c(C)c1` | -11.85 | -3.829 | -0.5366 | -0.9828 |
| `CN(CCc1ccncc1)C(=O)C1CSCN1C(=O)C(C)(C)C` (stereo not given) | 8.909 | 22.86 | 7.145 | -2.593 |
| `CS(=O)(=O)NCCC(=O)NC1CCc2nccn2C1` (stereo not given) | -2.753 | -11.54 | 5.228 | -7.589 |
| `CN(Cc1ccco1)C(=O)c1cccc(N2CCCC2=O)c1` | -1.181 | -11.89 | -0.1318 | 2.296 |
| `COc1ccc(C(=O)NCc2ccc(C(=O)O)o2)cc1` | 10.01 | 0.1645 | 0.5945 | 15.21 |
| `CO[C@H]1CN(C(=O)c2cccc(C)n2)CC[C@@]12CCCO2` | -38.2 | -7.731 | -0.2769 | 18.26 |
| `CC(C)c1nc(S(=O)(=O)N(C)c2ccc(F)cc2)c[nH]1` | 1.936 | -52.86 | 1.592 | 4.701 |
| `[H][C@@]12CS(=O)(=O)C[C@]1([H])N(Cc1ncc[nH]1)CCN2Cc1ccc(CC)cn1` | 3.591 | - | - | - |
| `CN(CCc1ccccn1)C(=O)C(O)c1cc(Cl)cc(Cl)c1` (stereo not given) | -12 | 1.861 | 1.706 | -0.6329 |
| `CN(Cc1nnc(C2CC2)n1C)C1CCN(Cc2ccccc2F)C1` (stereo not given) | 11.14 | -14.92 | 4.974 | -2.796 |
| `O=C(Nc1ccccc1)[C@H]1CN2CC[C@H]1C[C@@H]2Cn1cc(CCO)nn1` | - | -20.64 | 1.725 | -13.77 |
| `COCCN(CC(F)F)c1cc(C(F)(F)F)nc2ncnn12` | -30.67 | -5.809 | 3.275 | -0.2433 |
| `COC(=O)c1ccc(CCn2cnc(C#N)n2)cc1` | 1.147 | 11.39 | -7.47 | -1.656 |

5 of the entries, repeated:

SMILES	Toxoplasma	Pks13 thioesterase	PfKRS1	CoaBC
CCCS(=O)(=O)N1Cc2nccn2CC(Cn2cncn2)C1 (stereo not given)	28.18	-39.79	0.7342	-1.707
O=C1CC[C@H]2CN(Cc3ccc(Cl)s3)CC[C@H]2N1CCc1c[nH]cn1	-	-40.28	3.121	-1.505
CN(C)C(=O)C1OC2(CCN(C(=O)c3ccco3)CC2)c2ccccc21 (stereo not given)	-9.108	11.46	6.429	3.258
Cn1ncc(C2CC(=O)NCc3nc4sccn4c32)c1C1CC1 (stereo not given)	-26.27	-0.6446	1.744	5.093
CNC(=O)c1cccnc1NCCOc1ccccc1	-6.524	-12.51	3.346	-3.427